Measured values: the supplement of paper PMC10849652
Some of the results follow.

By UniProt entry, the sequences of proteins in these tests, tags left out. Where a name states a change or a piece, a line headed by the entry shows the natural chain unless it says otherwise.
UniProt Q9BS92: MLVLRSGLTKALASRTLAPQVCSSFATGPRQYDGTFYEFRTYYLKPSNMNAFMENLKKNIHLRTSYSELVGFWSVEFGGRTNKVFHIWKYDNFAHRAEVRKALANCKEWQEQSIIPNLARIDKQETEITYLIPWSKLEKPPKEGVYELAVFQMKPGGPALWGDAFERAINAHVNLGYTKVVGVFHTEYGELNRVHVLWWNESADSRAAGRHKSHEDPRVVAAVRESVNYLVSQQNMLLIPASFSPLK
UniProt Q92597: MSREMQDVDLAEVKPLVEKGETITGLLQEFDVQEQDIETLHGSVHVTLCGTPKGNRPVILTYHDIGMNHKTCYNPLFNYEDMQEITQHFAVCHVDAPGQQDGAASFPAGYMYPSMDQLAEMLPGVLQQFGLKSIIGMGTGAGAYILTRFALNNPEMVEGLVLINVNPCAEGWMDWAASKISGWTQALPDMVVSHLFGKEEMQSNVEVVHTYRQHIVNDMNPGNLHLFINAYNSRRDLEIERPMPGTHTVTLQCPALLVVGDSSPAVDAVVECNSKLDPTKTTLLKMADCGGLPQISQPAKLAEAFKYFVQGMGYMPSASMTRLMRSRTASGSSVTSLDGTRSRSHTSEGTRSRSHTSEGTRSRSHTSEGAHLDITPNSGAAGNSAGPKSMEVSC
UniProt Q6NW34: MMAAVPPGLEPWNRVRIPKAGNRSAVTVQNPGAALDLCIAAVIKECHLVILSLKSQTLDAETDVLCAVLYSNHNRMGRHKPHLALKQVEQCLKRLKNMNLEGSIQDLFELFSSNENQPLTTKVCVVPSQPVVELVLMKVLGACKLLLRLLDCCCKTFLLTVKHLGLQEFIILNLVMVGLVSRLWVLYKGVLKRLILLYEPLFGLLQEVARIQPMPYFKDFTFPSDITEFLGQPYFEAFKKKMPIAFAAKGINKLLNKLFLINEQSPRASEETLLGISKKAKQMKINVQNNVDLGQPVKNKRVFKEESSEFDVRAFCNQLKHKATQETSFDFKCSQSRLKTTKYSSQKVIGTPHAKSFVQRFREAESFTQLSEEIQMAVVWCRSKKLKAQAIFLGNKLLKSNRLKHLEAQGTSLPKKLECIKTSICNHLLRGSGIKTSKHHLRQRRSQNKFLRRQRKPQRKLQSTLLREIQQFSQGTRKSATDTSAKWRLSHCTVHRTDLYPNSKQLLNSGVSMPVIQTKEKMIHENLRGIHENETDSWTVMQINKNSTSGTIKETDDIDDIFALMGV
UniProt Q16649: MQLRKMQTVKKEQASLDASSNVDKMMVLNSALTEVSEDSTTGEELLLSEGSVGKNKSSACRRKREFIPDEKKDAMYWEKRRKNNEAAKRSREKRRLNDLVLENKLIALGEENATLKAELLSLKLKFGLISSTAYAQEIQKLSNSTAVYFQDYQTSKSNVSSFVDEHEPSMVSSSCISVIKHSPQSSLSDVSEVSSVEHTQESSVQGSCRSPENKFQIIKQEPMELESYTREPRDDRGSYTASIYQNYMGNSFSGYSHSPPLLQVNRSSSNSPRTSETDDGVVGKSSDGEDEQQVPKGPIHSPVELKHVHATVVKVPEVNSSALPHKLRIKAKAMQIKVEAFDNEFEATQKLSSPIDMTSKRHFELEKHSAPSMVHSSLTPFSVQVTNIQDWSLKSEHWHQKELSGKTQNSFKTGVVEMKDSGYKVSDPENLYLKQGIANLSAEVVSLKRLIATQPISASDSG
UniProt Q330K2: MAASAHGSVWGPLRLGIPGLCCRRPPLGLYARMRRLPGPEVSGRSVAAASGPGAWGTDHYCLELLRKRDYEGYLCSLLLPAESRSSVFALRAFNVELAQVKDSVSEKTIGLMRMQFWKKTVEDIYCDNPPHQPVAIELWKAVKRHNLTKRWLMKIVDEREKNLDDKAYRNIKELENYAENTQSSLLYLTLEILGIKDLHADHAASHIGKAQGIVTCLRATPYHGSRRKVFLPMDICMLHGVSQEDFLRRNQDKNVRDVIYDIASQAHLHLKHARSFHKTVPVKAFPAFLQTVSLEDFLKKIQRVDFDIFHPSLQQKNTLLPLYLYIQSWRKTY
UniProt Q6P3R8: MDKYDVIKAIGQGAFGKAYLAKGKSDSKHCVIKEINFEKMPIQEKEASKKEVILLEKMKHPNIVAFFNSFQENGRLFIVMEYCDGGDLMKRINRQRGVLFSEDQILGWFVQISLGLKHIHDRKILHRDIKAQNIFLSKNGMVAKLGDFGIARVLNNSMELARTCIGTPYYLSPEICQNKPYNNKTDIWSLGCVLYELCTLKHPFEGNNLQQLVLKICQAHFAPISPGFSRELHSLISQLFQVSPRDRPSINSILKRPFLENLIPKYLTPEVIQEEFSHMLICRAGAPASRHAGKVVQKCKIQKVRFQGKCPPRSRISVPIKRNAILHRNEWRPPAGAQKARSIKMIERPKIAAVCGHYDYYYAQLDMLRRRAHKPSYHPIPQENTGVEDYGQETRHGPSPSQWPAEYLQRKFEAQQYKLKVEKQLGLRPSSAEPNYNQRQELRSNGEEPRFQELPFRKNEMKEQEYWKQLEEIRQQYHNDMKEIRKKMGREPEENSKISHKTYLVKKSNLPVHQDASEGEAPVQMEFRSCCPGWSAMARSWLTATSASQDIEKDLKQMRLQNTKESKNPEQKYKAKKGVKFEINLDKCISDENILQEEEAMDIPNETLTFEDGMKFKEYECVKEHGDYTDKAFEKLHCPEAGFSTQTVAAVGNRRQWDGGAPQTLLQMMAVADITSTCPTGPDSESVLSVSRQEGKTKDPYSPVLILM
UniProt Q96JN8: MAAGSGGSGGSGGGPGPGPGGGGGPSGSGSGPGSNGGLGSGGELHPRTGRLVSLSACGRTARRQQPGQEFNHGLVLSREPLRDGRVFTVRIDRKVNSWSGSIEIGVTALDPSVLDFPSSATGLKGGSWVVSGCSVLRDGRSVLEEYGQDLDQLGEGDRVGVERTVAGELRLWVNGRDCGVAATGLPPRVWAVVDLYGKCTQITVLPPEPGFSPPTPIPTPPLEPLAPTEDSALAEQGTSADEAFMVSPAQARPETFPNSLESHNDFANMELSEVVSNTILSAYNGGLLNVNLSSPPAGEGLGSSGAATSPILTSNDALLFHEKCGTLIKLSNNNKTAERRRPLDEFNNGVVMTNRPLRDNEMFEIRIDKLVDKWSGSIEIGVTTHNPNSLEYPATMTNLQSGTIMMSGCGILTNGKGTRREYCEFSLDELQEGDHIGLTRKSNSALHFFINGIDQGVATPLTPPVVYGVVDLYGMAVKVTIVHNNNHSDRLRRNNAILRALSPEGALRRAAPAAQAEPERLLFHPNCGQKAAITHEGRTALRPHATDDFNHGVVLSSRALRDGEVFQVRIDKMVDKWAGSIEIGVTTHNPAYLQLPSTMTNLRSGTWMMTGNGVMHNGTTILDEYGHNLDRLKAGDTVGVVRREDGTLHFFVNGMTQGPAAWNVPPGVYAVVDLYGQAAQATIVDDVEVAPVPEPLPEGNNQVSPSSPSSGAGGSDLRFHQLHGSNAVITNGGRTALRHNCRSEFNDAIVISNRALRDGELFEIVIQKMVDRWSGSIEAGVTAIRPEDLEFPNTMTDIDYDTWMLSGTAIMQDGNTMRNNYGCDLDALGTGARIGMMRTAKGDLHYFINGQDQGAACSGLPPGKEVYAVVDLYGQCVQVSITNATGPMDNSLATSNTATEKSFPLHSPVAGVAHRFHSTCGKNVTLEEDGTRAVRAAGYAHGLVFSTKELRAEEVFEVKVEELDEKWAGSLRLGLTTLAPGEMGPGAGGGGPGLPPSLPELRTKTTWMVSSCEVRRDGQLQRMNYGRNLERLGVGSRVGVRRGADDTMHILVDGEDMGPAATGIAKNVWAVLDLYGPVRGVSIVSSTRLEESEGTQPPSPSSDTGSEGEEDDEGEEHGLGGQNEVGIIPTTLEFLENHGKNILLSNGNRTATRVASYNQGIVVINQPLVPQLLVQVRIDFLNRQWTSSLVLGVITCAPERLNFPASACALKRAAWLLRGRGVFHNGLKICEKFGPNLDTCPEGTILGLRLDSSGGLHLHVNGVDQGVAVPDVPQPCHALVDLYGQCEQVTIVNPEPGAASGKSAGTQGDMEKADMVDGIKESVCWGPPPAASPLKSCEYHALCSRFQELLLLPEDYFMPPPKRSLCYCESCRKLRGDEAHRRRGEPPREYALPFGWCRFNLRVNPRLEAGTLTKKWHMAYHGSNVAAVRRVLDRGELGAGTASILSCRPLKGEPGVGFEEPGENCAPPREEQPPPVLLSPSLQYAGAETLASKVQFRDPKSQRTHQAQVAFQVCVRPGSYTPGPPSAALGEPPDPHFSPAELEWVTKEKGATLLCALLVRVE
UniProt P23511, whole entry, looked up: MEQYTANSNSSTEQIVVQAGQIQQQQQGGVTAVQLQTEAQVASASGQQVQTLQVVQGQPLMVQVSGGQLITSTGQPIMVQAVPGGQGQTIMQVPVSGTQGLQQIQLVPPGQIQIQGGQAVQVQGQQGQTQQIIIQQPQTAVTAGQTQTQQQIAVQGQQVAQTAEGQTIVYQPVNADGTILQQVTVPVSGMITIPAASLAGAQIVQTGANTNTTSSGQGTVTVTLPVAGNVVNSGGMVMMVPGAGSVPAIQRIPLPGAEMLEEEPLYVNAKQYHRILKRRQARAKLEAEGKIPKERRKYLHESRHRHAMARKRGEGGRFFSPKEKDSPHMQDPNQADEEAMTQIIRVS
UniProt O75438, whole entry, looked up: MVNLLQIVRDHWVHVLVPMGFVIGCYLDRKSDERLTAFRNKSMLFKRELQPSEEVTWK
UniProt Q9BT67: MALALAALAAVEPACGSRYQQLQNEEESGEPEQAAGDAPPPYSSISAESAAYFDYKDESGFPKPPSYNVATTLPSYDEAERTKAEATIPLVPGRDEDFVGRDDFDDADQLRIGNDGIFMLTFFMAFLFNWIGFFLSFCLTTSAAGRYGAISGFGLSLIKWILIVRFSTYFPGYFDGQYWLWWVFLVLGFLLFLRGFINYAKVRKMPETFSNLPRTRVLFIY
UniProt Q9NYS0: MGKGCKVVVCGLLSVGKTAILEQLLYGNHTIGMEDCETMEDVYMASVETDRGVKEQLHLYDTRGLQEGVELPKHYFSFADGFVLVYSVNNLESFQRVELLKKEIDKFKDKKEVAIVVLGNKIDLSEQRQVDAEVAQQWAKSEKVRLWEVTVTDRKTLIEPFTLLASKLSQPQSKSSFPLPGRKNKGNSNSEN
UniProt P51957: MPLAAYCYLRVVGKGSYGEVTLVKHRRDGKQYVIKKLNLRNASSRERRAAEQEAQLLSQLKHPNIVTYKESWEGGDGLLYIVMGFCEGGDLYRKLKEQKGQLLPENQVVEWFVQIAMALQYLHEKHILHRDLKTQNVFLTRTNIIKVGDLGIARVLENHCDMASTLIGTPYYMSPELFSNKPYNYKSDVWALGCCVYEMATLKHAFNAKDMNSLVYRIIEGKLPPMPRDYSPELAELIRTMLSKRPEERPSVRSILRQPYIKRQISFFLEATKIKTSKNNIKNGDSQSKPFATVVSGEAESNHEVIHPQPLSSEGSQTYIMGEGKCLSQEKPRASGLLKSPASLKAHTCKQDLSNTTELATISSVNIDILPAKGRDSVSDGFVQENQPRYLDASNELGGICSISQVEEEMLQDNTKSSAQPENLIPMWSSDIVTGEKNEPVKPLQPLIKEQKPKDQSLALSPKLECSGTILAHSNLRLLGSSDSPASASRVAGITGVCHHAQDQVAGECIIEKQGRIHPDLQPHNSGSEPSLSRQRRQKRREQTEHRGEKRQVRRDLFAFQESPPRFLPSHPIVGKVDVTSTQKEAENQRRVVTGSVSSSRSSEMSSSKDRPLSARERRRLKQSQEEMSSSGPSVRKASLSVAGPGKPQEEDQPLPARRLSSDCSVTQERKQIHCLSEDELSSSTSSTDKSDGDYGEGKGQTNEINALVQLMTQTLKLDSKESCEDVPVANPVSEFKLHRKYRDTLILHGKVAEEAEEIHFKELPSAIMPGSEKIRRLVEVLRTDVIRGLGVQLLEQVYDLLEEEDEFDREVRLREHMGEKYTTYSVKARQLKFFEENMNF
UniProt Q9UBE8: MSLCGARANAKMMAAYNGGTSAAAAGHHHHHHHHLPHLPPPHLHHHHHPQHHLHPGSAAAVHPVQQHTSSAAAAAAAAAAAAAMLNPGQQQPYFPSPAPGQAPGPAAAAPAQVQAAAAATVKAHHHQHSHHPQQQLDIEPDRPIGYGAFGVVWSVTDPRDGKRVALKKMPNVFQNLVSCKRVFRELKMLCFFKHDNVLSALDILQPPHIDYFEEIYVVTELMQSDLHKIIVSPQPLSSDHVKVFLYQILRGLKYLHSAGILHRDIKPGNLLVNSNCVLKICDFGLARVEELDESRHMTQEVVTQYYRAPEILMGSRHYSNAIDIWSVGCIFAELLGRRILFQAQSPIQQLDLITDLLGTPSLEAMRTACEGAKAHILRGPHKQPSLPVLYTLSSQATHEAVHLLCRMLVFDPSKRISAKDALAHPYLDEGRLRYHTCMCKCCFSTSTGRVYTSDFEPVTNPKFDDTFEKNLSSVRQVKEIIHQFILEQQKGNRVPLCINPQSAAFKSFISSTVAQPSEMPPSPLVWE
UniProt O43677, whole entry, looked up: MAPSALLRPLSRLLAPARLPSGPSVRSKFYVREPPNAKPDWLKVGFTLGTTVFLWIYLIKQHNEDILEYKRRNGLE

What was measured:
Assay in all cases: log2 fold change, soluble protein after heating vs DMSO (PISA); higher = thermal stabilisation; K562 lysate, 10 uM; active = over 0.2 and 3.5 SD of the protein, either way, in both replicates (recomputed)
alvocidib = compound: CN1CC[C@H](c2c(O)cc(O)c3c(=O)cc(-c4ccccc4Cl)oc23)[C@H](O)C1 [alvocidib]
Procedure, shortened: (§1)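 Soluble protein was defined as the supernatant remaining after 21,000xg for 90 min, following pooling of heated aliquots and adjustment to 0.5% NP-40 at 4°C. Before that, crude K562 extract at 1 mg/mL protein in PBS pH 7.4 with 1 mM MgCl2 was treated with 10 μM compound for 30 min and heated for 3 min across 48°C-58°C. Quantification used TMTpro 16plex LC-MS/MS with channel sums equalised, and values are log-two fold changes in thermal stability relative to solvent controls from duplicates.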

Tubastatin A = compound: CN1CCc2c(c3ccccc3n2Cc2ccc(C(=O)NO)cc2)C1 [Tubastatin A]
Procedure, shortened: as §1

[1] = compound: CNC(=O)C1=CC=CC=C1NC2=NC(=NC=C2Cl)NC3=C(C=C(C=C3)N4CCOCC4)OC
Procedure, shortened: as §1

defactinib = compound: CNC(=O)c1ccc(Nc2ncc(C(F)(F)F)c(NCc3nccnc3N(C)S(C)(=O)=O)n2)cc1 [defactinib]
Procedure, shortened: as §1

encorafenib = compound: COC(=O)N[C@@H](C)CNc1nccc(-c2cn(C(C)C)nc2-c2cc(Cl)cc(NS(C)(=O)=O)c2F)n1 [encorafenib]
Procedure, shortened: as §1

[2] = compound: COC(=O)[C@H](CCSC)NC(=O)C1=C(C=C(C=C1)NC[C@H](CS)N)C2=CC=CC=C2
Procedure, shortened: as §1

[3] = compound: COc1cc2nc(-c3cc(F)ccc3O)nc(N[C@@H]3CNC[C@H]3C(C)(C)O)c2cc1OC
Procedure, shortened: as §1

[4] = compound: CNc1nc(-c2ccc3c(N)n[nH]c3c2)cc(N2C[C@@H](C(=O)NC3CCCCC3)CC[C@H]2C)n1
Procedure, shortened: as §1

alisertib = compound: COc1cc(Nc2ncc3c(n2)-c2ccc(Cl)cc2C(c2c(F)cccc2OC)=NC3)ccc1C(=O)O [alisertib]
Procedure, shortened: as §1

gefitinib = compound: COc1cc2ncnc(Nc3ccc(F)c(Cl)c3)c2cc1OCCCN1CCOCC1 [gefitinib]
Procedure, shortened: as §1

Measured: log2 fold change

NKX2-2 (UniProt O95096)
inactive: alvocidib -0.248 | Tubastatin A 0.152 | [1] -0.095 | defactinib -0.088 | encorafenib -0.098 | [2] 0.067 | [3] 0.133

NEU4 (UniProt C9JEA3)
inactive: alvocidib -0.022 | Tubastatin A 0.019 | [1] -0.043 | defactinib -0.034 | [4] 0.054 | alisertib 0.028 | gefitinib 0.038

NIN isoform 7 (UniProt Q8N4C6)
inactive: alvocidib 0.046 | Tubastatin A 0.016 | [1] -0.008 | [3] 0.193

NLRP1 (UniProt Q9C000)
inactive: Tubastatin A 0.218 | [1] 0 | [4] 0.05 | encorafenib 1.12 | [2] -0.038

NIPSNAP3B (UniProt Q9BS92)
inactive: alvocidib -0.055 | Tubastatin A -0.04 | [1] -0.012 | defactinib -0.035 | encorafenib 0 | [2] 0.061 | alisertib 0.064 | [3] 0.015 | gefitinib -0.208

NDST1 (UniProt P52848)
inactive: Tubastatin A 0.073 | [1] -0.003 | defactinib 0.176 | [4] 0.008 | encorafenib 0.074 | [2] -0.033 | alisertib 0.028 | [3] -0.022 | gefitinib -0.051

NDRG1 (UniProt Q92597)
inactive: alvocidib -0.096 | Tubastatin A -0.067 | [1] -0.033 | defactinib 0.102 | [4] -0.037 | [3] -0.077

NFATC4 isoform 2 (UniProt Q14934)
inactive: alvocidib -0.062 | defactinib -0.12 | [4] 0.023 | encorafenib 0.011 | [2] -0.032 | alisertib 0.048 | [3] 0.244 | gefitinib 0.132

NDRG2 (UniProt G3V2A6)
inactive: alisertib -0.145 | [3] -0.001 | gefitinib -0.188

NEU3 isoform 2 (UniProt Q9UQ49)
inactive: Tubastatin A -0.043 | [1] 0.012 | defactinib 0.23 | [4] -0.04 | encorafenib 0.05 | [2] 0.147 | alisertib 0.051 | [3] 0.003 | gefitinib -0.04

NET1 (UniProt Q7Z628)
inactive: Tubastatin A -0.104 | [1] 0.047 | defactinib -0.13 | alisertib -0.015 | gefitinib 0.082

NKAPD1 isoform 2 (UniProt Q6ZUT1)
inactive: [1] 0.021 | alisertib -0.051 | gefitinib -0.187

NFIX (UniProt Q14938)
inactive: encorafenib 0.065 | [2] -0.272

NFKB1 isoform 2 (UniProt P19838)
inactive: Tubastatin A -0.086 | [1] -0.007 | defactinib -0.004 | [4] -0.011 | encorafenib 0.029 | [2] 0.009 | alisertib 0.011 | [3] 0.001 | gefitinib -0.051

NEPRO (UniProt Q6NW34)
inactive: alvocidib 0.005 | Tubastatin A -0.042 | [1] 0.054 | [4] 0.028 | encorafenib 0.145 | [2] 0.075 | alisertib -0.138 | [3] 0.031 | gefitinib -0.107

NDFIP2 (UniProt Q9NV92)
inactive: alvocidib 0.069 | Tubastatin A -0.069 | alisertib -0.149 | gefitinib -0.201

Two consecutive entries out of the list so far, quoted:
NEU3 isoform 2 (UniProt Q9UQ49)
inactive: Tubastatin A -0.043 | [1] 0.012 | defactinib 0.23 | [4] -0.04 | encorafenib 0.05 | [2] 0.147 | alisertib 0.051 | [3] 0.003 | gefitinib -0.04

NET1 (UniProt Q7Z628)
inactive: Tubastatin A -0.104 | [1] 0.047 | defactinib -0.13 | alisertib -0.015 | gefitinib 0.082

Additional results.

NFIL3 (UniProt Q16649)
inactive: Tubastatin A -0.096 | encorafenib -0.302 | [2] 0.17 | alisertib 0.068 | [3] 0.676 | gefitinib 0.047

NFRKB isoform 2 (UniProt Q6P4R8)
inactive: alvocidib -0.048 | [1] 0.003 | encorafenib -0.076 | [2] -0.095 | alisertib 0.003 | [3] -0.219 | gefitinib -0.143

NDUFAF6 (UniProt Q330K2)
inactive: alvocidib 0.021 | Tubastatin A -0.202 | [1] 0.065 | [4] -0.102 | encorafenib 0.035 | [2] 0.031 | alisertib -0.01 | [3] -0.174 | gefitinib -0.14

NEK5 (UniProt Q6P3R8)
inactive: alvocidib 0.075 | Tubastatin A 0.071 | defactinib 0.026 | [4] -0.138 | encorafenib 0 | [2] -0.006 | alisertib 0.257 | [3] -0.05 | gefitinib 0.094

NEURL4 (UniProt Q96JN8)
inactive: alvocidib 0.006 | [1] -0.026 | defactinib -0.091 | [4] -0.083 | encorafenib 0.009 | [2] 0.138 | [3] -0.055

NFYA (UniProt P23511)
inactive: alvocidib 0.003 | Tubastatin A 0.027 | [1] 0.141 | defactinib 0.012 | [4] 0.086 | encorafenib 0.048 | [2] -0.011 | [3] -0.072

NFYC isoform 3 (UniProt Q13952)
inactive: [1] -0.145 | [4] -0.064

NDRG2 isoform 6 (UniProt Q9UN36)
inactive: Tubastatin A 0.001 | [1] 0.043 | defactinib 0.201 | [4] -0.093 | encorafenib 0.138 | [2] -0.067 | [3] -0.187

NDUFB1 (UniProt O75438)
inactive: alvocidib 0.249 | Tubastatin A -0.098 | [1] 0.025 | defactinib 0.115 | [4] 0.054 | alisertib -0.06 | gefitinib -0.14

NFE2L1 (UniProt Q14494)
inactive: alvocidib -0.014 | Tubastatin A 0.007 | [1] -0.106 | defactinib 0.025 | encorafenib 0.026 | [2] 0.096

NFKBIA (UniProt P25963)
inactive: [1] 0.083 | defactinib -0.394 | [4] 0.017 | alisertib -0.085 | [3] 0.025 | gefitinib 0.228

NEB isoform 3 (UniProt P20929)
inactive: alvocidib -0.133 | Tubastatin A 0.123 | [1] 0.021 | defactinib -0.095 | [4] 0.154 | alisertib 0.009 | [3] -0.151 | gefitinib -0.034

NFIA isoform 4 (UniProt Q12857)
inactive: alvocidib -0.042 | Tubastatin A -0.049 | [1] 0.007 | defactinib 0.002 | [4] 0.09 | alisertib -0.01 | [3] -0.012 | gefitinib 0.103

NDFIP1 (UniProt Q9BT67)
inactive: alvocidib -0.084 | Tubastatin A -0.022 | [1] 0.045 | defactinib 0.07 | [4] 0.089 | alisertib -0.032 | [3] -0.116 | gefitinib -0.004

NEIL2 (UniProt Q969S2)
inactive: [1] 0.107 | alisertib 0.024 | gefitinib 0.04

NIPA1 (UniProt Q7RTP0)
inactive: alvocidib -0.122 | Tubastatin A -0.144 | [1] 0.023 | defactinib 0.293 | alisertib 0.103 | [3] 0.02 | gefitinib 0.048

NGDN (UniProt Q8NEJ9)
inactive: Tubastatin A -0.042 | [1] 0.125 | encorafenib 0.253 | [2] 0.149 | alisertib 0.157 | [3] 0.089 | gefitinib 0.067

NLRC3 isoform 2 (UniProt Q7RTR2)
inactive: Tubastatin A 0.028 | [1] 0.023 | defactinib -0.146 | [4] -0.126 | encorafenib 0.063 | [2] -0.007 | alisertib 0.107 | [3] -0.032 | gefitinib 0.164

NKIRAS1 (UniProt Q9NYS0)
inactive: alvocidib -0.199 | [1] 0.169 | defactinib -0.173 | [4] 0.232 | encorafenib 0.128 | [2] 0.115 | alisertib -0.245 | [3] 0.033 | gefitinib -0.063

NEK4 (UniProt P51957)
inactive: defactinib 0.035

NLK (UniProt Q9UBE8)
inactive: alvocidib -0.054 | [1] 0.067 | defactinib -0.178

NDUFC1 (UniProt O43677)
inactive: Tubastatin A 0.088 | [1] -0.043 | [4] 0.103 | encorafenib 0.024 | [2] -0.03
